This data set in a line: general procedure: Fmoc solid-phase peptide synthesis; HBTU and HOBt, DIEA. The following applies: whole synthesis.

Plain letter strings leave the end groups untold.

Consider CQWAVGHLM, for which the isolated yield entry is listed as “about 60%”.

The record behind these values is US10117956B2 (Institute of Nuclear Energy Research Atomic Energy Council, …, priority 2013, dated 2018).
